According to PubChem BioAssay AID2685 (National Center for Advancing Translational Sciences (NCATS), 2010):
This is one part of the list. The main result of the screen is listed elsewhere. These columns were measured beside it and carry no call. Most of these compounds were active or inconclusive in the main read-out, so they are no random draw. Words in brackets tell the shape of the fitted curve; partial curves, single points and poor fits give uncertain potencies.

Test: qHTS Assay for Lipid Storage Modulators in Drosophila S3 Cells;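 on cell number change: cells counted by Cell Tracker Red CMTPX staining in the red channel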
Details: BODIPY lipid droplet fluorescence, 18-24 h; for cell number change: measured here: cell count max response, cells fed with added oleic acid
Procedure, shortened: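 Drosophila S3 cells loaded with oleic acid (400 uM, as added) and compounds at several concentrations; lipid droplets imaged by 488-nm laser-scanning cytometry, 500–530 nm intensity and object ratio to cell channel. Percent activity normalized to 20 uM Triacsin C.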

[1] = measured here: lipid fluorescence (Fed channel) AC50, cells fed with added oleic acid
[2] = measured here: cell number channel AC50, cells fed with added oleic acid

Row | Structure (SMILES) | cell number change [%] | AC50 [1] | AC50 [2]
1 | COc1ccccc1NS(=O)(=O)c1cn(C)cn1 | -12.7 | 0.231 µM [falling, full curve, poor fit] | 
2 | O=C(Nc1cccc(C(=O)O)c1)/C(=C\c1ccco1)NC(=O)c1ccccc1Cl | -8.97 |  | 
3 | Cc1sc(-c2ccncc2)nc1OC(=O)c1ccc(Cl)cc1 |  | 0.0013 µM [falling, full curve, poor fit] | 
4 | C/C(=N\NC(=O)c1ccc(C)cc1C)c1ccc2c(c1)OCO2 | -44.2 |  | 7.31 µM [falling, full curve, poor fit]
5 | COc1cccc(C(=O)NCC2CCCN2S(=O)(=O)c2ccccc2)c1 (stereo not given) |  | 6.51 µM [rising, single point] | 
6 | CCn1nc(C)c(CNC(=O)c2ccc(OC3CCN(Cc4ccccn4)CC3)cc2)c1C | -36.5 |  | 0.58 µM [falling, full curve, poor fit]
7 | C[n+]1c2n(c3ccccc31)N=C(c1ccc(-c3ccccc3)cc1)CS2 | -61.6 | 29.1 µM [falling, single point] | 29.1 µM [falling, single point]
8 | CCOc1ccccc1NS(=O)(=O)c1ccc2[nH]c(=O)ccc2c1 | 20.7 | 29.1 µM [falling, single point] | 
9 | COc1ccc(CCNS(=O)(=O)c2cccc([N+](=O)[O-])c2)cc1OC | 21.6 | 6.51 µM [rising, single point] | 
10 | Cc1ccc(C(C)C)c(OCC(=O)NNC(=O)C2CSC3(C)CCC(=O)N23)c1 (stereo not given) | -25 |  | 6.51 µM [falling, single point]
11 | c1ccc2c(c1)oc1c(NCCCN3CCOCC3)ncnc12 | -20.9 | 29.1 µM [rising, single point] | 
12 | Cc1cc(NC(=O)c2ccc3c(c2)C(=O)N(CCC(C)C)C3=O)no1 | 13.8 |  | 0.731 µM [falling, single point]
13 | Cc1nc2ccccc2cc1OCc1ccc(F)cc1 | -78.2 |  | 
14 | Cc1ccc(C(=O)OCC(=O)N2C(C)CCCC2C)cc1S(=O)(=O)N1CCOCC1 (stereo not given) | -31 |  | 29.1 µM [falling, single point]
15 | Cc1ccc2c(c1)N(C(=O)CCC(=O)NCc1cccnc1)CCO2 | 11 |  | 
16 | O=C(CN1CCN(S(=O)(=O)/C=C/c2ccccc2)CC1)Nc1ccc(N2CCOCC2)cc1 | 37.3 |  | 20.6 µM [rising, single point]
17 | Cn1ncc2c(N3CCOCC3)ncnc21 | -39.2 | 7.31 µM [falling, partial curve, poor fit] | 0.58 µM [falling, full curve]
18 | COc1ccc(-c2csc(N3CCC(C(N)=O)(N4CCCCC4)CC3)n2)cc1 | -18.6 |  | 
19 | COc1ccc(-c2cccc(NC(=O)c3ccco3)c2)nn1 |  | 2.91 µM [rising, partial curve] | 
20 | Cc1ccc(S(=O)(=O)N=Nc2c(O)[nH]c3ccccc23)cc1 | -16.5 | 20.6 µM [falling, single point] | 

Row | Structure (SMILES) | cell number change [%] | AC50 [1] | AC50 [2]
21 | COc1ccc(Cl)cc1-n1c(=S)sc2c(=O)[nH]c(SCC(=O)NCCC(C)C)nc21 | 8.33 | 29.1 µM [rising, single point] | 
22 | Cc1ccc(-c2csc3nc(SCC(=O)Nc4ccc(Cl)c(C(=O)O)c4)[nH]c(=O)c23)cc1 | 26.3 | 32.6 µM [rising, single point] | 
23 | Cc1ccc(S(=O)(=O)c2cc3ccccc3oc2=Nc2ccc3c(c2)OCCO3)cc1 | -8.15 | 0.92 µM [rising, full curve, poor fit] | 
24 | Cc1ccc(NC(=S)N(CCCN2CCC(C)CC2)Cc2ccco2)cc1 | -9.68 | 6.51 µM [rising, single point] | 5.8 µM [rising, single point]
25 | COc1ccc2c(COC(=O)c3cccc(S(=O)(=O)NCC(C)C)c3)cc(=O)oc2c1 | 5.56 |  | 
26 | Cc1noc(N)c1C(=O)Nc1ccccc1F | -13.8 |  | 6.51 µM [falling, single point]
27 | CCn1c(SCC(=O)N2CCCc3ccccc32)nc2cccnc21 | 164 | 9.2 µM [rising, partial curve] | 7.31 µM [rising, partial curve]
28 | Cc1ccc(NC(=O)CNC(=O)N2CC(=O)Nc3ccccc32)cc1F | -27 |  | 0.00461 µM [falling, full curve, poor fit]
29 | COC(=O)c1ccccc1NC(=O)CCCN1C(=O)C(c2ccccc2)Oc2cccnc21 (stereo not given) | -16 |  | 
30 | CCOC(=O)c1ccc(NC(=S)N2CCSC2c2ccc(Br)cc2)cc1 (stereo not given) | -83.3 | 2.31 µM [falling, partial curve] | 29.1 µM [falling, single point]
31 | Cc1ccc(NC(=O)N/C=C/c2ccco2)cc1C | 151 | 20.6 µM [rising, partial curve] | 
32 | OCCN(Cc1ccccc1)Cc1cccc(C(F)(F)F)c1 | -44 | 16.4 µM [falling, partial curve] | 18.4 µM [falling, single point]
33 | COc1cccc(CN(C)Cc2nc3cc(C(F)(F)F)ccc3c(=O)[nH]2)c1 | -18.5 |  | 
34 | CCN(CC(=O)Nc1cccc(F)c1)Cc1nc2ccccc2c(=O)[nH]1 | 32.2 |  | 0.461 µM [rising, full curve, poor fit]
35 | CSc1ncccc1C(=O)NCCc1ccc(S(N)(=O)=O)cc1 | 0.901 | 29.1 µM [falling, single point] | 
36 | O=C(NCc1ccccc1Br)C1CCCO1 (stereo not given) | 23.8 | 0.116 µM [falling, full curve, poor fit] | 
37 | Cc1cc(C)cc(OCc2nnc(SCC(=O)N3CCN(c4ccccc4)CC3)o2)c1 |  | 0.58 µM [rising, single point] | 
38 | CCOC(=O)C1=C(Cn2cnc3ccccc32)NC(=O)NC1c1cc(C)ccc1C (stereo not given) | -20.3 | 8.2 µM [falling, partial curve, poor fit] | 
39 | N#C/C(C(N)=O)=c1/ccc2c(c1)N1C3=C(CCCC3)CC3CCCCC31N=2 (stereo not given) | -3.62 | 0.13 µM [rising, full curve, poor fit] | 
40 | COc1ccc(C)cc1NC(=O)c1cccc(C(=O)Nc2cc(C)ccc2OC)c1 | -31.4 | 3.66 µM [falling, full curve] | 13 µM [falling, single point]

Compounds shown so far with a Cl atom:
Row | Structure (SMILES) | cell number change [%] | AC50 [1] | AC50 [2]
2 | O=C(Nc1cccc(C(=O)O)c1)/C(=C\c1ccco1)NC(=O)c1ccccc1Cl | -8.97 |  | 
3 | Cc1sc(-c2ccncc2)nc1OC(=O)c1ccc(Cl)cc1 |  | 0.0013 µM [falling, full curve, poor fit] | 
21 | COc1ccc(Cl)cc1-n1c(=S)sc2c(=O)[nH]c(SCC(=O)NCCC(C)C)nc21 | 8.33 | 29.1 µM [rising, single point] | 
22 | Cc1ccc(-c2csc3nc(SCC(=O)Nc4ccc(Cl)c(C(=O)O)c4)[nH]c(=O)c23)cc1 | 26.3 | 32.6 µM [rising, single point] | 

Continuation.

Row | Structure (SMILES) | cell number change [%] | AC50 [1] | AC50 [2]
41 | N#CC(C#N)=C1C=CC=CN1/C(=C\c1ccccc1Cl)C(=O)c1ccccc1 | -59.3 | 8.2 µM [falling, partial curve] | 13 µM [falling, partial curve]
42 | Cc1n[nH]c(C)c1CCNCc1ccc(OCC(O)CN2CCCCC2)cc1 (stereo not given) | 11.3 | 4.11 µM [falling, single point] | 
43 | Cc1ccc(S(=O)(=O)c2nc(NN(C)C)sc2Cl)cc1 | -17.1 |  | 
44 | COc1cccc(N2CCN(C3CCCC(C)C3)CC2)c1 (stereo not given) | -103 | 29.1 µM [falling, single point] | 32.6 µM [falling, single point]
45 | CCN(CC)CCNC(=O)c1ccc2c(c1)NC(=O)c1ccccc1S2 | 31.5 | 29.1 µM [rising, single point] | 29.1 µM [rising, single point]
46 | CCN(c1ccccc1)S(=O)(=O)c1ccc(OC)c(OC)c1 |  | 1.46 µM [rising, full curve] | 
47 | Clc1ccc(-c2noc(CN3CCN(c4ccccc4)CC3)n2)cc1 | -23.4 |  | 1.16 µM [falling, full curve, poor fit]
48 | O=C(COC(=O)c1cc[n+]([O-])cc1)Nc1cc([N+](=O)[O-])ccc1Cl | 2 |  | 
49 | CCOc1ccccc1N(C)C(=O)Cn1ncc2c([nH]c3ccccc32)c1=O | 14.9 | 29.1 µM [rising, single point] | 
50 | CCOC(=O)C1CCCN(CC(=O)/C=C2/N(C)c3ccccc3C2(C)C)C1 (stereo not given) | -16.1 |  | 
51 | c1ccc(-c2nc(NCC3CCCO3)c3oc4ccccc4c3n2)cc1 (stereo not given) |  | 4.61 µM [rising, full curve] | 2.31 µM [rising, partial curve]
52 | Fc1ccc(NC(=S)NNc2ncc(C(F)(F)F)cc2Cl)c(F)c1 | -65.1 | 25.1 µM [falling, partial curve, poor fit] | 25.1 µM [falling, single point]
53 | COc1ccccc1NCC(O)COc1ccc(C(C)(C)C)cc1 (stereo not given) | -68 | 16.4 µM [falling, single point] | 16.4 µM [falling, partial curve, poor fit]
54 | COc1cc(CN2CCN(c3cccc(C)c3C)CC2)cc([N+](=O)[O-])c1O | 3.01 | 6.51 µM [falling, single point] | 
55 | CC(C)(C)NC(=S)N1CCC(C(=O)c2ccc(F)cc2)CC1 | 2.7 |  | 
56 | CN1CCN(S(=O)(=O)c2cccc(C(=O)N(C)C(c3ccccc3)c3ccccc3)c2)CC1 | 33.2 |  | 20.6 µM [rising, single point]
57 | O=C(CCC(=O)Nc1ccccc1Cl)NN=C1CCCC1 | -1.42 | 6.51 µM [falling, single point] | 
58 | CCOc1ccc(NC(=O)CN(C)C(=O)CCSc2ccc(F)cc2)cc1OCC | 13.9 | 0.0058 µM [falling, full curve, poor fit] | 
59 | CCOC(=O)Nc1ccc2c(COC(=O)c3ccccc3O)cc(=O)oc2c1 | 0.451 |  | 
60 | O=C(NCCc1c[nH]c2ccccc12)C(=O)NCC(c1cccnc1)N1CCN(c2ccccc2)CC1 (stereo not given) | -6.41 |  | 0.326 µM [rising, partial curve, poor fit]
